{
  "source": "paper PMC9587031",
  "about": "“Antibiotic polymyxin arranges lipopolysaccharide into crystalline structures to solidify the bacterial membrane” (Nature Communications, 2022)",
  "test_system": "OM patches from E. coli MG1655 WT strain",
  "test": "AFM change in membrane area, height and volume of OM patches",
  "set-up": "species or system Escherichia coli",
  "settings": "for Height of OM patch: Suppl. Fig. 9d; for Volume of OM patch: Suppl. Fig. 9e",
  "data": [
    {"smiles": "CCCCCCCCCCCC[N+](C)(C)[O-]", "note": "[LDAO, N, N-dimethyl-1-dodecanamine-N-oxide]", "values": [
      {"measurement": "Height of OM patch", "setting": "LDAO 0.11 mg/l, Patch1, same patch at 0 mg/l 6.41", "result": 6.39, "unit": "nm"},
      {"measurement": "Volume of OM patch", "setting": "LDAO 0.11 mg/l, Patch1, same patch at 0 mg/l 1013254", "result": 1028307, "unit": "nm^3"},
      {"measurement": "Height of OM patch", "setting": "LDAO 0.11 mg/l, Patch 2, same patch at 0 mg/l 6.53", "result": 6.34, "unit": "nm"},
      {"measurement": "Volume of OM patch", "setting": "LDAO 0.11 mg/l, Patch 2, same patch at 0 mg/l 496584", "result": 494754, "unit": "nm^3"},
      {"measurement": "Height of OM patch", "setting": "LDAO 0.11 mg/l, Patch 3, same patch at 0 mg/l 6.97", "result": 6.56, "unit": "nm"},
      {"measurement": "Volume of OM patch", "setting": "LDAO 0.11 mg/l, Patch 3, same patch at 0 mg/l 223104", "result": 236268, "unit": "nm^3"},
      {"measurement": "Height of OM patch", "setting": "LDAO 1.1 mg/l, Patch1, same patch at 0 mg/l 6.41", "result": 6.23, "unit": "nm"},
      {"measurement": "Volume of OM patch", "setting": "LDAO 1.1 mg/l, Patch1, same patch at 0 mg/l 1013254", "result": 1028280, "unit": "nm^3"},
      {"measurement": "Height of OM patch", "setting": "LDAO 1.1 mg/l, Patch 2, same patch at 0 mg/l 6.53", "result": 6.27, "unit": "nm"},
      {"measurement": "Volume of OM patch", "setting": "LDAO 1.1 mg/l, Patch 2, same patch at 0 mg/l 496584", "result": 495093, "unit": "nm^3"},
      {"measurement": "Height of OM patch", "setting": "LDAO 1.1 mg/l, Patch 3, same patch at 0 mg/l 6.97", "result": 6.44, "unit": "nm"},
      {"measurement": "Volume of OM patch", "setting": "LDAO 1.1 mg/l, Patch 3, same patch at 0 mg/l 223104", "result": 238391, "unit": "nm^3"},
      {"measurement": "Height of OM patch", "setting": "LDAO 11.5 mg/l, Patch1, same patch at 0 mg/l 6.41", "result": 5.91, "unit": "nm"},
      {"measurement": "Volume of OM patch", "setting": "LDAO 11.5 mg/l, Patch1, same patch at 0 mg/l 1013254", "result": 1027992, "unit": "nm^3"},
      {"measurement": "Height of OM patch", "setting": "LDAO 11.5 mg/l, Patch 2, same patch at 0 mg/l 6.53", "result": 6.23, "unit": "nm"},
      {"measurement": "Volume of OM patch", "setting": "LDAO 11.5 mg/l, Patch 2, same patch at 0 mg/l 496584", "result": 597600, "unit": "nm^3"},
      {"measurement": "Height of OM patch", "setting": "LDAO 11.5 mg/l, Patch 3, same patch at 0 mg/l 6.97", "result": 6.55, "unit": "nm"},
      {"measurement": "Volume of OM patch", "setting": "LDAO 11.5 mg/l, Patch 3, same patch at 0 mg/l 223104", "result": 274932, "unit": "nm^3"},
      {"measurement": "Height of OM patch", "setting": "LDAO 115 mg/l, Patch1, same patch at 0 mg/l 6.41", "result": 5.68, "unit": "nm"},
      {"measurement": "Volume of OM patch", "setting": "LDAO 115 mg/l, Patch1, same patch at 0 mg/l 1013254", "result": 1844375, "unit": "nm^3"},
      {"measurement": "Height of OM patch", "setting": "LDAO 115 mg/l, Patch 2, same patch at 0 mg/l 6.53", "result": 6.14, "unit": "nm"},
      {"measurement": "Volume of OM patch", "setting": "LDAO 115 mg/l, Patch 2, same patch at 0 mg/l 496584", "result": 939114, "unit": "nm^3"},
      {"measurement": "Height of OM patch", "setting": "LDAO 115 mg/l, Patch 3, same patch at 0 mg/l 6.97", "result": 6.38, "unit": "nm"},
      {"measurement": "Volume of OM patch", "setting": "LDAO 115 mg/l, Patch 3, same patch at 0 mg/l 223104", "result": 408128, "unit": "nm^3"},
      {"measurement": "increase in area of OM patches", "setting": "detergent concentration 11.5 mg/l, DPBS, n = 3 OM patches", "result": "around two-fold"},
      {"measurement": "maximal decrease in membrane height", "setting": "increasing LDAO concentrations, DPBS, n = 3 OM patches", "result": "≈ 9%"}
    ]}
  ]
}
